Assay results from the supplement of paper PMC6411743.
± gives the standard deviation of the averaged measurements. The list shows a part of the results, in another mix than the full data. Most values lie at the level of the controls, where differences are scatter.

By UniProt entry, the sequences of proteins in these tests, tags left out. Where a name states a change or a piece, a line headed by the entry shows the natural chain unless it says otherwise.
UniProt Q9BPX6: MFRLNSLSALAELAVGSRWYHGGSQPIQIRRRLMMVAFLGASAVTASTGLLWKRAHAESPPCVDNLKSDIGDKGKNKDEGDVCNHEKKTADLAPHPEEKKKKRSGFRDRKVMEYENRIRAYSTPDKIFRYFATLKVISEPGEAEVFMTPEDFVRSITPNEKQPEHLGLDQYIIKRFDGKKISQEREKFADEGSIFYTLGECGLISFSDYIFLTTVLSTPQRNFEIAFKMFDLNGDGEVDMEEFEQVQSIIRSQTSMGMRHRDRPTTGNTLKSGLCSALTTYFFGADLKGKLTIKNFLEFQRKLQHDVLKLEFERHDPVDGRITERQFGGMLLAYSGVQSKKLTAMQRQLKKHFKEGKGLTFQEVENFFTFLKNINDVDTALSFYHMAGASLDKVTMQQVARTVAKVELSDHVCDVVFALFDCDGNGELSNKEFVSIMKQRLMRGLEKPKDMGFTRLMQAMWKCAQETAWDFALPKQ
UniProt Q9Y3T6: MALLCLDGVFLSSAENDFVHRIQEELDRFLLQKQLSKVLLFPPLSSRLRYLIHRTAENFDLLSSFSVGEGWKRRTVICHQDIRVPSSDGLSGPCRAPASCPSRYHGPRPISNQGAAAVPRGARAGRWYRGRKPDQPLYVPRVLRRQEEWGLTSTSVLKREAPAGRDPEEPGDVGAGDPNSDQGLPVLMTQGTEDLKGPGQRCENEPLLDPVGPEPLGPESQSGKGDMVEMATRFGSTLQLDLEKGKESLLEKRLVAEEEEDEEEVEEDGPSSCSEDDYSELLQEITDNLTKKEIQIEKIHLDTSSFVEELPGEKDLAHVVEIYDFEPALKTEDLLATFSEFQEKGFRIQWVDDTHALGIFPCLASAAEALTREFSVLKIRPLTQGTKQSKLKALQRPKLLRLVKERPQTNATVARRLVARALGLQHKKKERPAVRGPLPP
UniProt Q9Y240: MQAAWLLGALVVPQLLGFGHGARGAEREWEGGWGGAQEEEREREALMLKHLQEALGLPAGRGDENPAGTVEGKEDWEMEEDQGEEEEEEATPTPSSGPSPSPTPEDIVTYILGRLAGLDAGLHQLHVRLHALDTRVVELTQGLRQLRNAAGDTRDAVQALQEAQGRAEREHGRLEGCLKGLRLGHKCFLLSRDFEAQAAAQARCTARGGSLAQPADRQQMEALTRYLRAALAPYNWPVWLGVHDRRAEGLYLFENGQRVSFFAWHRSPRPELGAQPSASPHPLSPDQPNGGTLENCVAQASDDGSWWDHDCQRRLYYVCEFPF
UniProt P01848, whole entry, looked up: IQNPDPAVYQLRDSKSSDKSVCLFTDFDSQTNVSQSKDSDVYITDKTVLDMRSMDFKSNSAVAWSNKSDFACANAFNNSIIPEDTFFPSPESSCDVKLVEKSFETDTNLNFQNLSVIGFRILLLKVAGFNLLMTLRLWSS
UniProt O94967: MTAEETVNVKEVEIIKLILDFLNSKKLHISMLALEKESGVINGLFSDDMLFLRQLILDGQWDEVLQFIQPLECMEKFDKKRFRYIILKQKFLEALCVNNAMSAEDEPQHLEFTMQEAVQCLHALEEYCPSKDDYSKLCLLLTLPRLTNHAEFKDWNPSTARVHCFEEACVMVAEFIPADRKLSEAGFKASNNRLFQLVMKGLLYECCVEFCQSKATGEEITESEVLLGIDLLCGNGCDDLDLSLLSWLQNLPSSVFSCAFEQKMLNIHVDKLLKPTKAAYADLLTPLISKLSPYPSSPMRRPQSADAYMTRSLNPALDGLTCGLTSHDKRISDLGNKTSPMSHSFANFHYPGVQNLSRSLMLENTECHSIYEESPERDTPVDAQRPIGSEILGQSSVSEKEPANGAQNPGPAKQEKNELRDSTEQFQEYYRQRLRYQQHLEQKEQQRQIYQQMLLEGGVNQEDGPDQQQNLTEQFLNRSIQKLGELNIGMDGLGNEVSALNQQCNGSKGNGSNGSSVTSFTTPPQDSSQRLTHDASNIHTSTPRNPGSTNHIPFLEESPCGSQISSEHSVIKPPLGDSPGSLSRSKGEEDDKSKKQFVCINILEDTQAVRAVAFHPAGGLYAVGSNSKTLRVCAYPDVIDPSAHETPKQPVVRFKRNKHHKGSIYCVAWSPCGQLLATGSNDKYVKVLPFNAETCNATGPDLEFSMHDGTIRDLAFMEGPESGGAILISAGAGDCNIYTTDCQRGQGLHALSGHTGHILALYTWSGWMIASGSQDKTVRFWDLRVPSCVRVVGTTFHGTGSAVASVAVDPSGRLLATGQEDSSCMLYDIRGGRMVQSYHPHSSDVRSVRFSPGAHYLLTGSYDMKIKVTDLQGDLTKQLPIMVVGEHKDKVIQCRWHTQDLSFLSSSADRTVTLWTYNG
UniProt Q96T37: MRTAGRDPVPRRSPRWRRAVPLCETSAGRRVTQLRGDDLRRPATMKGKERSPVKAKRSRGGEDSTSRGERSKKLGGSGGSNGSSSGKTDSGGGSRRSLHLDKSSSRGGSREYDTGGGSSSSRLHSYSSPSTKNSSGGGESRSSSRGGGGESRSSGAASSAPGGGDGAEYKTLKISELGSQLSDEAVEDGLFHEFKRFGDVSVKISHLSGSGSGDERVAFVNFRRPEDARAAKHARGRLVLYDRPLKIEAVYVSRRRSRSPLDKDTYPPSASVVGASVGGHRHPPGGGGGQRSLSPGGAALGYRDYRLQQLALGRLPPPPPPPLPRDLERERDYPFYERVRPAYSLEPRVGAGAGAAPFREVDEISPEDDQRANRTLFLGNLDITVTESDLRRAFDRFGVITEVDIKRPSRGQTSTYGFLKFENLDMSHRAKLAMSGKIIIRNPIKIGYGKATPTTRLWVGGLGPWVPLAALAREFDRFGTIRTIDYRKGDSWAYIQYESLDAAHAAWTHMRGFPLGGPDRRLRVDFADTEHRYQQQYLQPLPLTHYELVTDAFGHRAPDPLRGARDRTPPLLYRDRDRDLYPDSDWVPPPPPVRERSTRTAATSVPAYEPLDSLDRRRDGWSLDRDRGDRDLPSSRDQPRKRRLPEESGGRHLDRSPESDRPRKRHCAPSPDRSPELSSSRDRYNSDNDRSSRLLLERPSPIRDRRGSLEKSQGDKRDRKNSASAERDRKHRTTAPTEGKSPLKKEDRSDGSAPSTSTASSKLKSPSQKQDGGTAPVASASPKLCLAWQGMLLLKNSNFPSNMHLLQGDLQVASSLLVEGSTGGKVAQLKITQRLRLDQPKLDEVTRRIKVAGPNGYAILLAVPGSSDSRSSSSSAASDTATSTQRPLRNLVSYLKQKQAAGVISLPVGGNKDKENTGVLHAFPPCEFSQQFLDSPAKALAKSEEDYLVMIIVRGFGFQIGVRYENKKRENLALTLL
UniProt Q03701: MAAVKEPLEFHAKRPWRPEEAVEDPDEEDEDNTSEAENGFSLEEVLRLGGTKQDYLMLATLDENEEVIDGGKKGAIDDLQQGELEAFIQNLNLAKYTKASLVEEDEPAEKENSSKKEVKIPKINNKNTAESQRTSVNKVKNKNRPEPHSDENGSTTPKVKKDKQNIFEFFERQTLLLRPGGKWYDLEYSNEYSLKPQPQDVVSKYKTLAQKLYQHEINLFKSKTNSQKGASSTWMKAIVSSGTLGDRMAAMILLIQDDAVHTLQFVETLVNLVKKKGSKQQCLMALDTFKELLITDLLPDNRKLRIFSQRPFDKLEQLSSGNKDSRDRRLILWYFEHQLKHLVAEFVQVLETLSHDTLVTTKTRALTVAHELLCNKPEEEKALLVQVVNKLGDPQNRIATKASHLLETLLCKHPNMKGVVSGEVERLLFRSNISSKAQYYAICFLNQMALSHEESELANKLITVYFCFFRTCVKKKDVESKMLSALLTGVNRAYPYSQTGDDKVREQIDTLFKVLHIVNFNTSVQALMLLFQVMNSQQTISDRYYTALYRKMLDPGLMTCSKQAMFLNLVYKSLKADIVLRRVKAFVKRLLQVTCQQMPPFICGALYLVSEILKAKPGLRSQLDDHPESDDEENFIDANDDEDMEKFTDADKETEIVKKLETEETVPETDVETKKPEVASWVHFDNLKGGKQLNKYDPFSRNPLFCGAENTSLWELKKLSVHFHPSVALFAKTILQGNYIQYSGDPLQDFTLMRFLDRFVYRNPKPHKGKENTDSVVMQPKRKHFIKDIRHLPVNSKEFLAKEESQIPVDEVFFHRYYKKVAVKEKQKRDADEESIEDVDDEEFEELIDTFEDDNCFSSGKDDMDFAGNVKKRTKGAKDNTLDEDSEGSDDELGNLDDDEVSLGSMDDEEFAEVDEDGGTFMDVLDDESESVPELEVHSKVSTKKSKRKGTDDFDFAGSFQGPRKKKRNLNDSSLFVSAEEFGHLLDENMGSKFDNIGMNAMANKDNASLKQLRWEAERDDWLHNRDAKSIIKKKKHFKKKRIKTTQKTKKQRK
UniProt Q9ULH1: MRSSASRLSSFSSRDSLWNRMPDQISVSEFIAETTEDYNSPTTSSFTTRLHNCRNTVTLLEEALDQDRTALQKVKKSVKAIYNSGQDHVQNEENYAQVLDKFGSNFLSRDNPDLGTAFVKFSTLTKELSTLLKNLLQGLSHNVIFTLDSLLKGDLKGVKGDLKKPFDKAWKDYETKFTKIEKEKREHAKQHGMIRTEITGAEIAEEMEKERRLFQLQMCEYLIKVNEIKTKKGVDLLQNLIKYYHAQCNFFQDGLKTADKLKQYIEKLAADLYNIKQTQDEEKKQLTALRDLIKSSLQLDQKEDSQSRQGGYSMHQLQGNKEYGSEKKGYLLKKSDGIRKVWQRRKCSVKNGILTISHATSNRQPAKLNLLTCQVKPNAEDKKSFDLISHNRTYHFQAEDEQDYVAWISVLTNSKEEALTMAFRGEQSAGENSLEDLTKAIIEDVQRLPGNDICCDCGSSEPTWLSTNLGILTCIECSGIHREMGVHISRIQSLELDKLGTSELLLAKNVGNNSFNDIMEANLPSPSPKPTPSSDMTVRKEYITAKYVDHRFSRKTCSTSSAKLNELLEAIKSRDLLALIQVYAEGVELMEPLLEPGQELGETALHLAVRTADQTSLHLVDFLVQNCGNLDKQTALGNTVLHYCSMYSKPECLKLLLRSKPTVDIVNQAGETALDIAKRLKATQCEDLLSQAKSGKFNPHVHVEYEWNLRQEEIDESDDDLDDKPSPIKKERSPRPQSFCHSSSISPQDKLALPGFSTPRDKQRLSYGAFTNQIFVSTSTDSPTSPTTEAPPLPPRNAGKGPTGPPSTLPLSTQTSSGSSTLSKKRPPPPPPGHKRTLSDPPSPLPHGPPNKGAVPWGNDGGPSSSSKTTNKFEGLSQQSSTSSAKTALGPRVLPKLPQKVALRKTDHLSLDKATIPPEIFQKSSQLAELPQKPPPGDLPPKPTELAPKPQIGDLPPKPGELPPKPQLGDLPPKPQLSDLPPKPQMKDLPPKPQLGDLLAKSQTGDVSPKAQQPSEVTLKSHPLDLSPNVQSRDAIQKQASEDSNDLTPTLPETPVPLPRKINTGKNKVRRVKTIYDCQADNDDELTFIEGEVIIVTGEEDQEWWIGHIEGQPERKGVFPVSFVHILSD
UniProt Q9NP79: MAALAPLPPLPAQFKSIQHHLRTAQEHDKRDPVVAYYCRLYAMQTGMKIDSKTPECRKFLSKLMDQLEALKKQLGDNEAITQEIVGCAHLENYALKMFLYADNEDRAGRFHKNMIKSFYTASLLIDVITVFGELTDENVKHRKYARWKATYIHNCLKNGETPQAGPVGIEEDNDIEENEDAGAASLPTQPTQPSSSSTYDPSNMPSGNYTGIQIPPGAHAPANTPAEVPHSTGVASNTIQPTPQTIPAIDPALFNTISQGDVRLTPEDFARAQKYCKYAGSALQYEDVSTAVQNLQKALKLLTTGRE
UniProt Q8IWT0: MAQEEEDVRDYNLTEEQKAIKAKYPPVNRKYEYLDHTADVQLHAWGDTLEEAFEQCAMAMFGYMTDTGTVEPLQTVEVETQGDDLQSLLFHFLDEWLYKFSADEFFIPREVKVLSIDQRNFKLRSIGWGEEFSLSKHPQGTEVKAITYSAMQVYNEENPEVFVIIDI
UniProt O95870: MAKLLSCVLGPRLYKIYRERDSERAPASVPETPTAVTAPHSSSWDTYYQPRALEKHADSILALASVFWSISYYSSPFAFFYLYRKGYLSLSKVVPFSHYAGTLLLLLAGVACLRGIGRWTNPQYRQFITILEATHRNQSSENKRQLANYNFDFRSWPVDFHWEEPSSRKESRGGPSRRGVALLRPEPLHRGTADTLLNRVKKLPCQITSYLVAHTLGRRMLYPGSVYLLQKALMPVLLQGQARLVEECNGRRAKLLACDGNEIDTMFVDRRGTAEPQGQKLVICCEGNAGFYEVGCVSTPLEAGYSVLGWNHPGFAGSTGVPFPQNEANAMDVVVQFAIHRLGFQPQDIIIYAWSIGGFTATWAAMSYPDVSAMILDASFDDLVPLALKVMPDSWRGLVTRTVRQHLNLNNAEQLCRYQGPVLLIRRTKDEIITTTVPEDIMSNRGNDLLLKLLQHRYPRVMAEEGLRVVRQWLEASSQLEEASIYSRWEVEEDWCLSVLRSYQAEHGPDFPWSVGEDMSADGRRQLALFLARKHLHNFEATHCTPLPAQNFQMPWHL

Compound: Nc1ncnc2c1ncn2[C@@H]1O[C@H](COP(=O)(O)OP(=O)(O)NP(=O)(O)O)[C@@H](O)[C@H]1O [adenylyl imidodiphosphate]
Test: NP40-soluble protein abundance relative to vehicle (solubility fold change) (ratio); higher = more soluble protein in presence of AMP-PNP
Outline: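 Jurkat crude lysate (Dounce-homogenised) was treated with eight concentrations from 0.1 to 10 mM for 10 min at room temperature, then 3 min at 37 °C. It was solubilised with 0.8% NP40 and benzonase (60 min, 4 °C) and ultracentrifuged, and the supernatant was TMT-labelled for LC-MS/MS. Intensities were vsn-normalised, and the value is the fold change against the NP40-processed vehicle per replicate, from three independent experiments.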

Target	NP40-soluble protein abundance (concentration: 0.1mM)	NP40-soluble protein abundance (concentration: 0.5mM)
A0A0U1RRK1|F6XEV2 and related entries (UniProt Q9BPX6)	0.983 ± 0.032	0.991 ± 0.012
A0A0D9SF44|A0A0R4J2E2|Q9Y3T6 (UniProt Q9Y3T6)	0.989 ± 0.051	0.989 ± 0.017
A0A0A0MT35|Q8TBF2 and related entries (UniProt Q8TBF2)	1.01 ± 0.021	1 ± 0.025
A0A0A6YY95|Q9Y240 (UniProt Q9Y240)	1 ± 0.019	0.993 ± 0.04
A0A087WW84|Q14114 and related entries (UniProt Q14114)	0.993 ± 0.024	0.984 ± 0.043
A0A0A0MQT4|Q5QP82 and related entries (UniProt Q5QP82)	0.983 ± 0.019	0.98 ± 0.013
A0A0J9YVP6|E9PQ56 and related entries (UniProt Q9UHX1)	1.06 ± 0.034	1.03 ± 0.033
A0A0A0MTH9|O14981 (UniProt O14981)	1.03 ± 0.016	1 ± 0.021
A0A0C4DGQ8|Q6IAN0 (UniProt Q6IAN0)	1 ± 0.038	1.02 ± 0.039
A0A0J9YXM6|E9PDG3 and related entries (UniProt Q562E7)	0.974 ± 0.054	0.986 ± 0.02
A0A087WWC6|P01848 and related entries (UniProt Q6P4I7+P01848)	0.964 ± 0.06	1.04 ± 0.014
A0A0C4DGZ0 (UniProt P24928)	1.03 ± 0.015	0.994 ± 0.045
A0A0C3SFZ9|M0QZI3 and related entries (UniProt O14526)	0.99 ± 0.037	0.987 ± 0.045
A0A0A0MRE6|O94967 and related entries (UniProt O94967)	1 ± 0.04	0.97 ± 0.051
A0A0A0MQR2|Q9BY42 (UniProt Q9BY42)	0.982 ± 0.019	1.009 ± 0.0094
A0A0A6YYA7|Q12851 and related entries (UniProt Q12851)	0.944 ± 0.012	0.985 ± 0.03
UniProt A0FGR8-2|H7BXI1	1.01 ± 0.016	1 ± 0.057
A0A0A0MTN0|Q13617 and related entries (UniProt Q13617)	0.971 ± 0.034	0.979 ± 0.05
A0A0A0MTJ9|A0A0R4J2G3|Q6PIU2 and related entries (UniProt Q6PIU2)	0.9716 ± 0.0078	1 ± 0.039
A0A5E8 and related entries (UniProt Q99501)	1.016 ± 0.0031	1.02 ± 0.019
A0A087X142|A6NFQ9 and related entries (UniProt Q92599)	0.98 ± 0.025	0.989 ± 0.024

Record cards (already shown):
A0A0A0MRE6|O94967 and related entries (UniProt O94967) in the list: NP40-soluble protein abundance (concentration: 0.1mM): 1 ± 0.04; NP40-soluble protein abundance (concentration: 0.5mM): 0.97 ± 0.051
A0A0A6YY95|Q9Y240 (UniProt Q9Y240) in the list: NP40-soluble protein abundance (concentration: 0.1mM): 1 ± 0.019; NP40-soluble protein abundance (concentration: 0.5mM): 0.993 ± 0.04

Going on with the list.

Target	NP40-soluble protein abundance (concentration: 0.1mM)	NP40-soluble protein abundance (concentration: 0.5mM)
A0A0D9SGE8|Q8IWS0 and related entries (UniProt Q8IWS0)	1 ± 0.015	1.01 ± 0.023
A0A0A0MTR7|A0A0A0MTC1|Q63HN8 and related entries (UniProt Q63HN8)	1.01 ± 0.066	0.954 ± 0.099
A0A0G2JLB3|A0A0G2JNZ0|A0A0G2JNZ5|P04062 and related entries (UniProt P04062)	0.9677 ± 0.0039	0.984 ± 0.015
A0A087WWP4|Q96T37 and related entries (UniProt Q96T37)	1.008 ± 0.0058	1.03 ± 0.011
A0A0B4J1V9|Q9NRZ9 and related entries (UniProt Q9NRZ9)	1.03 ± 0.03	0.991 ± 0.044
A0A087X1N2|Q03701 (UniProt Q03701)	1.01 ± 0.032	1.01 ± 0.034
A0A0A0MRE5|Q9ULH1 and related entries (UniProt Q9ULH1)	0.968 ± 0.018	0.988 ± 0.031
A0A0C4DFU2|P04179 and related entries (UniProt P04179)	0.976 ± 0.051	1.01 ± 0.067
A0A0A0MT83|P26440 (UniProt P26440)	1.02 ± 0.032	0.989 ± 0.015
A0A087WY55|Q9NP79 (UniProt Q9NP79)	1.01 ± 0.066	1.05 ± 0.12
A0A087WYN9|Q7Z478 (UniProt Q7Z478)	1.13 ± 0.026	1.18 ± 0.047
UniProt A1L0T0 and related entries	0.98 ± 0.024	0.992 ± 0.037
A0A087X0V4|A8K0B5 and related entries (UniProt Q8IWT0)	1 ± 0.031	0.961 ± 0.094
A0A0A0MRU8|Q9Y4X4 (UniProt Q9Y4X4)	1 ± 0.013	1.004 ± 0.0068
A0A0G2JJD3|O95870 and related entries (UniProt O95870)	1.01 ± 0.02	0.97 ± 0.056
A0A087X0K1|Q9Y376 (UniProt Q9Y376)	1.01 ± 0.064	1.02 ± 0.021
A0A0A0MT72|Q9BSQ5 and related entries (UniProt Q9BSQ5)	0.982 ± 0.018	0.971 ± 0.013
A0A087WXR7|Q5TBB1 (UniProt Q5TBB1)	1 ± 0.039	1.03 ± 0.05
A0A0A0MSB8|Q9UPT5 and related entries (UniProt Q9UPT5)	0.994 ± 0.014	0.9853 ± 0.0055
A0A087X0S7|A0A0B4J2G4|Q15345 and related entries (UniProt Q15345)	0.999 ± 0.017	1 ± 0.029
A0A0A0MSS8|P42330 (UniProt P42330)	1.04 ± 0.052	1.03 ± 0.02
